# Laboratory results taken from PubChem BioAssay AID2685 (National Center for Advancing Translational Sciences (NCATS), 2010).
# The list shows a part of the results. Further columns of the screen follow, without active or inactive calls. The list favours compounds with an active or inconclusive main result. Potencies come from curve fits of mixed quality, noted in brackets.
# Experiment: qHTS Assay for Lipid Storage Modulators in Drosophila S3 Cells;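 as to cell number change: cells counted by Cell Tracker Red CMTPX staining in the red channel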
# Conditions: BODIPY lipid droplet fluorescence, 18-24 h; for cell number change: measured here: cell count max response, cells fed with added oleic acid
# In short: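 Drosophila S3 cells got compounds at several concentrations plus oleic acid (400 uM solution). Laser-scanning cytometry with 488 nm excitation read lipid droplets at 500-530 nm and cells at 575-640 nm. Percent activity was relative to 20 uM Triacsin C.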
# [1] = measured here: lipid fluorescence (Fed channel) AC50, cells fed with added oleic acid
# [2] = measured here: cell number channel AC50, cells fed with added oleic acid
smiles,measurement,setting,value
COc1ccccc1CCNC(=O)C(=O)NCC1CCCN1S(=O)(=O)c1ccccc1 (stereo not drawn),cell number change,,-29.8%
O=C(CSc1cccc[n+]1[O-])N1CCc2ccccc21,cell number change,,19.2%
same,AC50,[1],"1.84 µM [rising, full curve, poor fit]"
O=C(COC(=O)c1cc(S(=O)(=O)Nc2ccccc2Cl)ccc1O)Nc1nc2ccccc2s1,cell number change,,-10.9%
same,AC50,[2],"0.731 µM [rising, full curve, poor fit]"
CN(C)C(CNC(=O)c1ccc(NS(=O)(=O)c2ccc3[nH]c(=O)[nH]c3c2)cc1)c1ccccc1 (stereo not drawn),cell number change,,-6.02%
COc1ccc(NC(=O)c2ccc(-c3ccc(-c4noc(C)n4)cc3C)cc2)cc1N1CCN(C)CC1,cell number change,,-51.2%
same,AC50,[2],"25.9 µM [falling, partial curve, poor fit]"
same,AC50,[1],"5.8 µM [falling, partial curve, poor fit]"
COc1ccc(C2/C(=C(/O)c3ccc4c(c3)CC(C)O4)C(=O)C(=O)N2CCN2CCOCC2)cc1OC (stereo not drawn),cell number change,,-8.01%
same,AC50,[1],"1.46 µM [rising, partial curve]"
Cc1nn(Cc2ccccc2)c(C)c1CNC(=O)[C@H](C)N=C1NS(=O)(=O)c2ccccc21,cell number change,,-22.9%
same,AC50,[2],"0.0517 µM [falling, full curve, poor fit]"
same,AC50,[1],"0.411 µM [falling, full curve]"
Cc1c(NC(=O)c2cc(-c3ccccc3O)on2)c(=O)n(-c2ccccc2)n1C,cell number change,,21.9%
same,AC50,[1],"0.291 µM [rising, partial curve, poor fit]"
Cc1c(CCO)c(=O)n(-c2ccccc2)n1S(=O)(=O)c1c(Cl)cc(Cl)cc1Cl,cell number change,,-20.8%
same,AC50,[1],"0.164 µM [falling, full curve, poor fit]"
COc1ccc(S(=O)(=O)N(C)CC(=O)Nc2ccc3c(c2)OCCO3)cc1,cell number change,,48%
same,AC50,[2],"14.6 µM [rising, single point]"
CC(Oc1ccccc1C(N)=O)C(=O)Nc1ccc(S(=O)(=O)N2CCCC2)cc1 (stereo not drawn),cell number change,,3.63%
CCOC(=O)C(C)N1C(=O)S/C(=C/c2cc(C)n(-c3ccccn3)c2C)C1=O (stereo not drawn),cell number change,,-11.8%
same,AC50,[1],"2.91 µM [rising, partial curve, poor fit]"
CC(C)Nc1nnc(SCC(=O)N2CCN(C(=O)c3ccco3)CC2)s1,cell number change,,1.84%
same,AC50,[1],"2.31 µM [rising, single point]"
Cc1c(C(=O)N2CCN(c3ncccn3)CC2)oc2ccc(Cl)cc12,cell number change,,48%
same,AC50,[2],"5.8 µM [rising, partial curve]"
same,AC50,[1],"0.82 µM [rising, full curve]"
Cc1ccc(C(=O)Nc2nnc(S(=O)(=O)N3CCCCCC3)s2)cc1,cell number change,,6.89%
same,AC50,[1],"29.1 µM [rising, single point]"
CCOc1cc(C(=O)NCc2ccc(F)cc2)ccc1OCC(=O)N1CCCCC1,cell number change,,47.7%
same,AC50,[2],"25.9 µM [rising, partial curve]"
same,AC50,[1],"29.1 µM [rising, partial curve]"
COC(=O)C1=C(O)/C(=C\c2ccc(OCC(=O)Nc3ccccc3)cc2)N=C1C,AC50,[1],"4.11 µM [rising, single point]"
CN(C)/C=N/c1sc2c(c1C(N)=O)CCCC2,cell number change,,19.9%
same,AC50,[1],"18.4 µM [rising, single point]"
N#Cc1ccccc1NC(=O)CSc1nccn1CCc1ccccc1,AC50,[2],"0.58 µM [rising, single point]"
same,AC50,[1],"0.58 µM [rising, single point]"
Cc1ccc(/C=C/C(=O)O)cc1S(=O)(=O)NCCCO,cell number change,,-82.8%
same,AC50,[2],"32.6 µM [falling, single point]"
CCN1CCN(C(c2ccc(OC)cc2)c2nnnn2Cc2ccc3c(c2)OCO3)CC1 (stereo not drawn),cell number change,,28.9%
same,AC50,[2],"0.291 µM [rising, full curve, poor fit]"
same,AC50,[1],"0.058 µM [rising, full curve, poor fit]"
O=C(CSCc1ccc(Br)cc1)N1CCCC1,cell number change,,-13.1%
same,AC50,[1],"29.1 µM [falling, single point]"
CN1CCN(c2ccccc2NC(=O)c2ccc(N3CCCC3)c([N+](=O)[O-])c2)CC1,cell number change,,-9.6%
Cc1ccc(CNC(=O)c2ccc(NC(=O)C3=CSCCO3)cc2)cc1,cell number change,,-8.55%
same,AC50,[1],"18.4 µM [rising, single point]"
Cc1cc(N2CCN(C(=O)c3ccco3)CC2)nc(-c2ccccc2)n1,cell number change,,-33.2%
same,AC50,[1],"1.84 µM [falling, full curve, poor fit]"
O=c1[nH]c2ccccc2nc1/C=C/c1ccc(F)cc1,AC50,[1],"10.3 µM [falling, partial curve]"
O=C(CSc1nnc(NC(=O)Cc2ccc(F)cc2)s1)NCc1ccco1,cell number change,,-31.6%
same,AC50,[2],"0.206 µM [falling, full curve]"
same,AC50,[1],"0.82 µM [falling, full curve, poor fit]"
CC(/C=N/Nc1nc(N2CCCCC2)nc(N2CCCCC2)n1)=C\c1ccccc1,cell number change,,2.32%
Cc1ccc(NC(=O)OCc2cccs2)cc1,cell number change,,4.7%
O=C(CNC(=O)c1ccc(Cl)cc1)NCCCn1ccnc1,cell number change,,34.5%
same,AC50,[2],"29.1 µM [rising, single point]"
Cc1c(C(=O)N2CCN(c3ccc(F)cc3)CC2)sc2nc3n(c(=O)c12)CCC3,cell number change,,15.8%
CCCn1nnnc1SCC(=O)c1ccc2c(c1)OCCO2,cell number change,,-90.2%
same,AC50,[2],"16.4 µM [falling, partial curve]"
same,AC50,[1],"18.4 µM [falling, partial curve]"
Cc1c(C(=O)N(C)CC(=O)Nc2cccc(F)c2)oc2c(Cl)cccc12,cell number change,,22.5%
Cc1ccc(/C=N/NC(=O)c2nnn(-c3nonc3N)c2CN(C)C)o1,cell number change,,-16.2%
same,AC50,[1],"0.259 µM [falling, full curve, poor fit]"
COc1ccc2cc(CO)n(C)c2c1,cell number change,,-20.3%
same,AC50,[1],"29.1 µM [rising, single point]"
CCOC(=O)c1nnn(-c2nonc2N)c1CN(CC)c1ccccc1,AC50,[1],"0.651 µM [falling, single point]"
CN1CCN(C2=C(Cl)C(=O)N(CCc3ccccc3)C2=O)CC1,cell number change,,-41%
same,AC50,[2],"10.3 µM [falling, partial curve]"
same,AC50,[1],"14.6 µM [falling, partial curve]"
CCN(C(=O)CSc1nnc(Cn2nnc3ccccc32)o1)c1nc(-c2ccccc2)cs1,cell number change,,-16.5%
O=C(N/C=C/c1ccccc1)Nc1ccc(Cl)cc1,cell number change,,-43.1%
same,AC50,[2],"14.6 µM [falling, single point]"
Cc1ccc(CNCCCSc2nc(C)cc(C)n2)cc1,cell number change,,-54.8%
same,AC50,[2],"4.61 µM [falling, full curve]"
same,AC50,[1],"2.59 µM [falling, partial curve]"
CCOC(CNC(=O)c1ccc(N2CCc3ccccc32)c([N+](=O)[O-])c1)OCC,cell number change,,-12.2%
same,AC50,[1],"29.1 µM [falling, single point]"
COc1cccc(C(=O)Nc2ccc(C(=O)c3ccccc3)cc2)c1,cell number change,,3.52%
same,AC50,[1],"29.1 µM [falling, single point]"
N#Cc1ccc(-c2ccc(OCC(=O)Nc3cccnc3)cc2)cc1,AC50,[1],"9.2 µM [falling, partial curve]"
CCCOc1ccc(C(=O)NC2CCSc3ccccc32)cc1 (stereo not drawn),cell number change,,154%
same,AC50,[2],"29.1 µM [rising, single point]"
CCCCC(NC(=O)c1ccc(Cl)cc1)C(=O)O (stereo not drawn),cell number change,,-15.1%
same,AC50,[1],"29.1 µM [falling, single point]"
CCOC(=O)N1CCN(C(=O)c2ccc(OC(C)=O)cc2)CC1,cell number change,,-12.4%
same,AC50,[1],"20.6 µM [falling, single point]"
Cc1cccnc1NC(=O)c1ccc(Cl)c(S(=O)(=O)N2CCCCCC2)c1,AC50,[2],"0.731 µM [falling, full curve, poor fit]"
CCC(CC)C(=O)Nc1nnc(SCC(=O)NC(C)(C)C)s1,cell number change,,-3.36%
same,AC50,[1],"29.1 µM [falling, partial curve, poor fit]"
Cn1cc(S(=O)(=O)N2CCN(c3cccc(Cl)c3)CC2)c(=O)n(C)c1=O,cell number change,,7.61%
same,AC50,[1],"6.51 µM [rising, partial curve, poor fit]"
Cc1cccn2c(=O)c3cc(C(=O)NC4CCCCC4)n(C)c3nc12,cell number change,,-3.77%
COc1ccc(Cn2c(C)nc3oc4cc(OC)ccc4c(=O)c3c2=O)cc1,cell number change,,0.978%
CN=C(Nc1cc(C)nn1-c1ccccc1)c1ccccc1F,cell number change,,46.9%
same,AC50,[2],"0.00461 µM [rising, full curve, poor fit]"
same,AC50,[1],"0.00517 µM [rising, full curve, poor fit]"
COc1ccc(S(=O)(=O)N2CCC(C(=O)NC3CC3)CC2)cc1OC,cell number change,,22%
same,AC50,[1],"32.6 µM [rising, single point]"
COc1cccc(CC(=O)Nc2nc(-c3ccc(F)c(F)c3)cs2)c1,cell number change,,23.5%
same,AC50,[1],"29.1 µM [rising, single point]"
COc1cccc(NC(=S)N2CCC(NC(=O)c3ccco3)CC2)c1,cell number change,,33.3%
same,AC50,[2],"11.6 µM [rising, partial curve, poor fit]"
same,AC50,[1],"0.116 µM [rising, single point]"
N#Cc1c(Nc2ccc(Cl)cc2)s[nH]c1=O,AC50,[2],"0.461 µM [falling, full curve, poor fit]"
same,AC50,[1],"0.116 µM [falling, full curve, poor fit]"
COc1ccc(N(CC(=O)NCc2ccco2)S(=O)(=O)c2ccc(C)cc2)cc1,cell number change,,-31.5%
same,AC50,[2],"5.8 µM [falling, partial curve]"
same,AC50,[1],"8.2 µM [falling, partial curve]"
CC(C)C(=O)Nc1nnc(SCC(=O)NCC2CCCO2)s1 (stereo not drawn),cell number change,,32.9%
same,AC50,[2],"2.31 µM [falling, partial curve, poor fit]"
same,AC50,[1],"3.66 µM [falling, partial curve]"

# 6 neighbouring entries already listed:
smiles,measurement,setting,value
CCCOc1ccc(C(=O)NC2CCSc3ccccc32)cc1 (stereo not drawn),AC50,[2],"29.1 µM [rising, single point]"
CCCCC(NC(=O)c1ccc(Cl)cc1)C(=O)O (stereo not drawn),cell number change,,-15.1%
same,AC50,[1],"29.1 µM [falling, single point]"
CCOC(=O)N1CCN(C(=O)c2ccc(OC(C)=O)cc2)CC1,cell number change,,-12.4%
same,AC50,[1],"20.6 µM [falling, single point]"
Cc1cccnc1NC(=O)c1ccc(Cl)c(S(=O)(=O)N2CCCCCC2)c1,AC50,[2],"0.731 µM [falling, full curve, poor fit]"
